Test results as given in the supplement of paper PMC10849652.
The list shows a part of the results. Residues, ends and D or L forms follow the SMILES beside them. *: point of attachment. Cbz = O=C(OCc1ccccc1)*

Sequences of proteins named here, by UniProt entry; tags and fusion partners are left off. A change or cut given only in a name is not applied to a line headed by its entry.
UniProt O60238, whole entry, looked up: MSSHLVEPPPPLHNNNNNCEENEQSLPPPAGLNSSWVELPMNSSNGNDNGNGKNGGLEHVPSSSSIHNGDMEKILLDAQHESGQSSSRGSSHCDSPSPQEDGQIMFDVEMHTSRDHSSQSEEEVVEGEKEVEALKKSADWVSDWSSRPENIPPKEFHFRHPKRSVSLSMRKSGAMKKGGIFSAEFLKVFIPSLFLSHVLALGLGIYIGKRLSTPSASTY
UniProt P38398, whole entry, looked up: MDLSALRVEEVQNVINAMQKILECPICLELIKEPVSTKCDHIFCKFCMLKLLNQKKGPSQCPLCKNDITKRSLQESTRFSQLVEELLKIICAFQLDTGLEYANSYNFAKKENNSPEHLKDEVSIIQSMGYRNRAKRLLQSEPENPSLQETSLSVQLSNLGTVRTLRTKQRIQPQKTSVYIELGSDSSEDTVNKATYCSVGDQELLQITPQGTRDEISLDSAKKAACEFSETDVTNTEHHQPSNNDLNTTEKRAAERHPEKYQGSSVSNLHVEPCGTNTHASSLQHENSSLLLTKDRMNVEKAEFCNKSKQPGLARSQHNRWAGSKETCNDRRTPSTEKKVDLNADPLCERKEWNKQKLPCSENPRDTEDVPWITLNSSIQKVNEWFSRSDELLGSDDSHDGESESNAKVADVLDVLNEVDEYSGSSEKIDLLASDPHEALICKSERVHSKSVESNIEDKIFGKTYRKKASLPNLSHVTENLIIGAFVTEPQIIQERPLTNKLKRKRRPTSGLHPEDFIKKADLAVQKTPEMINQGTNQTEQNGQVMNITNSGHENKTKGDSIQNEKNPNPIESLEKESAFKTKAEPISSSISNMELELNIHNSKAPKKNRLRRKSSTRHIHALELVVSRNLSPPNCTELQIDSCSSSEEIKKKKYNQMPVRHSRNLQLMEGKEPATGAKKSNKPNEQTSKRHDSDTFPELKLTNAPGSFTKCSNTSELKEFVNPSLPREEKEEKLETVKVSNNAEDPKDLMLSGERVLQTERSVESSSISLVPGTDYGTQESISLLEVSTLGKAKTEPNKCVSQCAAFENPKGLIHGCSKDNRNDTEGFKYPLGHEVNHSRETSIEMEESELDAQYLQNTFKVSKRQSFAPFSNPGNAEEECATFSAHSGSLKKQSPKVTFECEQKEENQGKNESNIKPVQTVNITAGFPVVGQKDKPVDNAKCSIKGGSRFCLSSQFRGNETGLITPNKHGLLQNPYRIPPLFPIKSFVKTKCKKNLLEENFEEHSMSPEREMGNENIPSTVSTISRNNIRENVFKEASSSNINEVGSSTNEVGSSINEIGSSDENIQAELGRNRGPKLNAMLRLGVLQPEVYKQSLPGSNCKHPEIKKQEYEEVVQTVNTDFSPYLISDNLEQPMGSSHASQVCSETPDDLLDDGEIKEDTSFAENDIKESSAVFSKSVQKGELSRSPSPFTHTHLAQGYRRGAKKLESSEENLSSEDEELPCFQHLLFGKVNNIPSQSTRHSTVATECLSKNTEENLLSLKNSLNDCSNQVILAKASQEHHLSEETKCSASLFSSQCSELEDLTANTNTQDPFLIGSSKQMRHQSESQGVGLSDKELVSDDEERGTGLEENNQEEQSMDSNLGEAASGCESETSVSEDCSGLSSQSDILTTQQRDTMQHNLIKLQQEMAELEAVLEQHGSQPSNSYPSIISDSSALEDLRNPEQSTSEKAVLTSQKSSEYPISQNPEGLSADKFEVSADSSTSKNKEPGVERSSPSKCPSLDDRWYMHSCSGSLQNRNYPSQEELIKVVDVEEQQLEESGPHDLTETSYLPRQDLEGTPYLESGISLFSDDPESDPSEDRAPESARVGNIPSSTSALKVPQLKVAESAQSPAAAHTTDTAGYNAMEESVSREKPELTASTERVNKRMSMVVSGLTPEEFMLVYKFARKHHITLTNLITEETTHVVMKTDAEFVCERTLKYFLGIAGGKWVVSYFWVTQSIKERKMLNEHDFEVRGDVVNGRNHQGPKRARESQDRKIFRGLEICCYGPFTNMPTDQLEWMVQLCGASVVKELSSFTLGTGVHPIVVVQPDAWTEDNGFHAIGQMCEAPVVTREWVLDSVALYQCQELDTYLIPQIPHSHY
UniProt P11274: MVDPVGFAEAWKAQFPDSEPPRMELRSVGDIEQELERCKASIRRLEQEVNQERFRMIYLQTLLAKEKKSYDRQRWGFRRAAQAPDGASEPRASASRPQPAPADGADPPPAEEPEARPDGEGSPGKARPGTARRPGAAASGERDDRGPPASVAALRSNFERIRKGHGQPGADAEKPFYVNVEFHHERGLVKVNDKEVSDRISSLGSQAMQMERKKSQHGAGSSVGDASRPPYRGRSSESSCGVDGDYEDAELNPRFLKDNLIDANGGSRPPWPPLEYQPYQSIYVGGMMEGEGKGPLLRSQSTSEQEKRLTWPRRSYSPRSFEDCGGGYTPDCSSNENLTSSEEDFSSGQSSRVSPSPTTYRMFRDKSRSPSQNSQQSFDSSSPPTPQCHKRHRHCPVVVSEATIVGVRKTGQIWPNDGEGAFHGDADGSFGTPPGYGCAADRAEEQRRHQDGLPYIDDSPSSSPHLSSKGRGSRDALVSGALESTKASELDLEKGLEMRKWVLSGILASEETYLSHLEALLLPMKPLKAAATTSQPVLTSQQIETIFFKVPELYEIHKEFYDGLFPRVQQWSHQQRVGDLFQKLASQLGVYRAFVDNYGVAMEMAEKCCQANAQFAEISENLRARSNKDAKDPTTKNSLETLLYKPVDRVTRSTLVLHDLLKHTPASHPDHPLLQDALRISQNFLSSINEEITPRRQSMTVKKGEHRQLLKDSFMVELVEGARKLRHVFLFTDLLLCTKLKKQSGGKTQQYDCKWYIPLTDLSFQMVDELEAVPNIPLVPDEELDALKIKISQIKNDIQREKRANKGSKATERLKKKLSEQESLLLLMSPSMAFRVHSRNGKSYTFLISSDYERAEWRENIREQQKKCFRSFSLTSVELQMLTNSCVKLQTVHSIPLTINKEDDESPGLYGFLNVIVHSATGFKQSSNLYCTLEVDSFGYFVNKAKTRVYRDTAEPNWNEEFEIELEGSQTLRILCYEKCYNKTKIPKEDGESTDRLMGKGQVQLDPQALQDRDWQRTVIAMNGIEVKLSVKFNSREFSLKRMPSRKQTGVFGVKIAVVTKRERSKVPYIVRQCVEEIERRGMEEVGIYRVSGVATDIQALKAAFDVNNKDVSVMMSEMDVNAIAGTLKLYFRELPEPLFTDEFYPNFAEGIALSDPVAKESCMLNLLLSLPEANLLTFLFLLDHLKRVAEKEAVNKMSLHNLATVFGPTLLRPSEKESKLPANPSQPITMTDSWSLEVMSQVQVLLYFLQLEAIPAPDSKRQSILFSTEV
UniProt Q96B45: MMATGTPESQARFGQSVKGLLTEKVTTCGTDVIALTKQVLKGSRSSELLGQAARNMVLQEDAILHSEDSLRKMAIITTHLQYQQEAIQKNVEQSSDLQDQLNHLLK
UniProt Q14CW9: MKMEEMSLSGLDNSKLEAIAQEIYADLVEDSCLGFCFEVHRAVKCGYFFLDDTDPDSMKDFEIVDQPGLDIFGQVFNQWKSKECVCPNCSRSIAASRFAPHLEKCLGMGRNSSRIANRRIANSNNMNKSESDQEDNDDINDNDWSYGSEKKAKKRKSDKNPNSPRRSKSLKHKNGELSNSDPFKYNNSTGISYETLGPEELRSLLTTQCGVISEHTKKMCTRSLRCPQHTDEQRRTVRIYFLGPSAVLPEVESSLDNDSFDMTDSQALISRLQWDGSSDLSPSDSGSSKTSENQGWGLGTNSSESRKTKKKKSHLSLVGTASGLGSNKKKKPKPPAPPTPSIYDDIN
UniProt P25440, whole entry, looked up: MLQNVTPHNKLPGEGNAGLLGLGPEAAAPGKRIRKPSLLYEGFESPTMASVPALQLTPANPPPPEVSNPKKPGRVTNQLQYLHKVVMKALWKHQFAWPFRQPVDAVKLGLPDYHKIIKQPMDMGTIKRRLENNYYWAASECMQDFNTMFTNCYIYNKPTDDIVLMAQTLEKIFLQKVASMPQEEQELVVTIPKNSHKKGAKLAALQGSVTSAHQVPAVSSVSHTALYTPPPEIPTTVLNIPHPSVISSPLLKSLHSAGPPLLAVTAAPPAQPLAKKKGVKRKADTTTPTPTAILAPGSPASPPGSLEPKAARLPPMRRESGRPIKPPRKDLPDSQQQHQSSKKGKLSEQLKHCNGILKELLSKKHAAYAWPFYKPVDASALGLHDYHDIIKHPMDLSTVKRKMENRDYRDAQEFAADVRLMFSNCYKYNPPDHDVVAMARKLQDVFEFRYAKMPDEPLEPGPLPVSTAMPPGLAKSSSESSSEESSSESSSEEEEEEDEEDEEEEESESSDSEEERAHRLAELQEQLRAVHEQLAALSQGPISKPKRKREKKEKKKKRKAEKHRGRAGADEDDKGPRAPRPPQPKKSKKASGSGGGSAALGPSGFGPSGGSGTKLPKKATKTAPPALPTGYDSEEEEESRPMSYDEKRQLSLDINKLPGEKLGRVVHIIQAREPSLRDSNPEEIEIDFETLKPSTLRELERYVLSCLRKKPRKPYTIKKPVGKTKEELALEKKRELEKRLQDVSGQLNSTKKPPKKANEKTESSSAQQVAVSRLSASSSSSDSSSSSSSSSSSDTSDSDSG
UniProt O00512: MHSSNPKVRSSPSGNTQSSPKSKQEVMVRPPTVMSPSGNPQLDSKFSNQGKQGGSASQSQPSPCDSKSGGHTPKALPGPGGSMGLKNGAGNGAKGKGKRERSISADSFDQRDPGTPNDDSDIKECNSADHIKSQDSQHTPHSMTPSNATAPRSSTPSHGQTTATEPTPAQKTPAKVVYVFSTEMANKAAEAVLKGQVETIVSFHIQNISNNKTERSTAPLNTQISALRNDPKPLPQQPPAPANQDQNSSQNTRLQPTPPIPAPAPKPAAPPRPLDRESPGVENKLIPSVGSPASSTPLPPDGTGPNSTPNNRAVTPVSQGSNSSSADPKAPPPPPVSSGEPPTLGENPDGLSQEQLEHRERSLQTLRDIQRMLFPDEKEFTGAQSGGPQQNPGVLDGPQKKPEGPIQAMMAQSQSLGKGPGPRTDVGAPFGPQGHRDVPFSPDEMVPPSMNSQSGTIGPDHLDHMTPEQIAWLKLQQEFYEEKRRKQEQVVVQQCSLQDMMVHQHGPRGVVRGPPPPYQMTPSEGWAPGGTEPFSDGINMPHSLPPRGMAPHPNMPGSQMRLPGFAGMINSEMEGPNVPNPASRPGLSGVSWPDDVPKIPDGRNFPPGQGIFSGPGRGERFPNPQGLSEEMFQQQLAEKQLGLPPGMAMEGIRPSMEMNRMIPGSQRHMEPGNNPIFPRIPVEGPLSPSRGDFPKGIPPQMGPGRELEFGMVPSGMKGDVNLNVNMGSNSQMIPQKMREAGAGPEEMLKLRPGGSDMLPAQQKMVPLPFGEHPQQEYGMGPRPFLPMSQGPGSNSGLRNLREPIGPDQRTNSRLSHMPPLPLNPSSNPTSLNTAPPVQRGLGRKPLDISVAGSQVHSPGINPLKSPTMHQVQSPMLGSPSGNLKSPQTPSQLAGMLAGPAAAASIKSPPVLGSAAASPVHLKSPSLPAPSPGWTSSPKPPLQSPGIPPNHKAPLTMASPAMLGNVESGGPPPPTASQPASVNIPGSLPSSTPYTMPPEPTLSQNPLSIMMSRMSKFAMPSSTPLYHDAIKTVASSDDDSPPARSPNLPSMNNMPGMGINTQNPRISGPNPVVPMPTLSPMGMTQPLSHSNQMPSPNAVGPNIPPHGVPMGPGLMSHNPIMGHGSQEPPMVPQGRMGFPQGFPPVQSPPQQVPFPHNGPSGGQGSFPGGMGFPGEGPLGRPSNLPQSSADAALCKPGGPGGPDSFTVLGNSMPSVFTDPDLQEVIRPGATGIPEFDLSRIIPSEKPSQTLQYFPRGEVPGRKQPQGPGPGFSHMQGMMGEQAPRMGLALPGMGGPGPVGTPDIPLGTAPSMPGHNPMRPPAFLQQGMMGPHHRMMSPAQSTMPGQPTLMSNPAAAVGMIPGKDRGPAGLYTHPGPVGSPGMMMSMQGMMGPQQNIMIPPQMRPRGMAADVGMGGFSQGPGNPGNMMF
UniProt P54252: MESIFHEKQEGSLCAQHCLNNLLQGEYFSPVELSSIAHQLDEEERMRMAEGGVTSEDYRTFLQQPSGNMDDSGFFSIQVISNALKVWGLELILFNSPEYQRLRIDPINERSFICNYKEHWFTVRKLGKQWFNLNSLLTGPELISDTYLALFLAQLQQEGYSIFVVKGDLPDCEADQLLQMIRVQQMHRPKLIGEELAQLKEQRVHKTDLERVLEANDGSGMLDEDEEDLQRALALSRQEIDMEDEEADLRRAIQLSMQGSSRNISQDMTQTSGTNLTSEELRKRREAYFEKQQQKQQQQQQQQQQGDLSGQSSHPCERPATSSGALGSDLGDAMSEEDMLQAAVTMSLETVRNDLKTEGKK

Assays:
Assay in all cases: log2 fold change, soluble protein after heating vs DMSO (PISA); higher = thermal stabilisation; K562 cells, 10 uM, 30 min; active = over 0.2 and 3.5 SD of the protein, either way, in both replicates (recomputed)
IRAK-1-4 Inhibitor I = compound: C1COCCN1CCN2C3=CC=CC=C3N=C2NC(=O)C4=CC(=CC=C4)[N+](=O)[O-] [IRAK-1-4 Inhibitor I]
How it was run: (§1)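 K562 cells at 2×10^6 cells/mL were treated with 10 μM compound for 30 min. Aliquots were heated for 3 min across 48°C-58°C, pooled, and extracted in PBS with 0.5% NP-40 at 4°C; soluble protein was the supernatant after 21,000xg for 90 min. Soluble protein was quantified by TMTpro 16plex LC-MS/MS with channel sums equalised, and reported as log2 fold change in thermal stability against DMSO controls, with values from duplicates.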

ralimetinib = compound: CC(C)(C)Cn1c(N)nc2ccc(-c3[nH]c(C(C)(C)C)nc3-c3ccc(F)cc3)nc21 [ralimetinib]
How it was run: as §1

[1] = compound: CC(C)C1=C2N=C(C=C(N2N=C1)NCC3=CC=CC=C3)NCCCCCCN
How it was run: as §1

[2] = compound: CC(C)C[C@@H](C=O)NC(=O)[C@H](CC(C)C)NC(=O)[C@H](CC(C)C)NC(=O)OCc1ccccc1
How it was run: as §1

pinometostat = compound: CC(C)N(C[C@H]1O[C@@H](n2cnc3c(N)ncnc32)[C@H](O)[C@@H]1O)[C@H]1C[C@@H](CCc2nc3cc(C(C)(C)C)ccc3[nH]2)C1 [pinometostat]
How it was run: as §1

[3] = compound: CC1=C(C(CC(=O)N1)C2=CC=C(C=C2)C(F)(F)F)C(=O)NC3=C(C=C4C(=C3)C=NN4)F
How it was run: as §1

[4] = compound: CC1=C(C2=C(C=C1)C(=O)C3=CC=CC=C3N2CCCN)C
How it was run: as §1

[5] = compound: CC1=C(C=C(C=C1)NC(=O)C2=CC(=CC=C2)N(C)C)NC(=O)C3=CC=C(C=C3)O
How it was run: as §1

[6] = compound: CC1=NC(=CC=C1)C2=C(N=C(N2)C(C)(C)C)C3=CC4=NC=CN=C4C=C3
How it was run: as §1

vemurafenib = compound: CCCS(=O)(=O)Nc1ccc(F)c(C(=O)c2c[nH]c3ncc(-c4ccc(Cl)cc4)cc23)c1F [vemurafenib]
How it was run: as §1

[7] = compound: CCCc1cc(C)[nH]c(=O)c1CNC(=O)c1cc(-c2ccnc(N3CCN(C)CC3)c2)cc2c1cnn2C(C)C
How it was run: as §1

givinostat = compound: CCN(CC)Cc1ccc2cc(COC(=O)Nc3ccc(C(=O)NO)cc3)ccc2c1 [givinostat]
How it was run: as §1

[8] = compound: CC1=C(C=C(C=C1)NC(=O)C2=CC(=CC=C2)C(C)(C)C#N)NC3=CC4=C(C=C3)N=CN(C4=O)C
How it was run: as §1

[9] = compound: CC1=CC=C(C=C1)SC2=C3C=C(SC3=CN=C2)C(=O)N
How it was run: as §1

[10] = compound: CCCS(=O)(=O)Nc1ccc(F)c(C(=O)c2c[nH]c3ncc(Cl)cc23)c1F
How it was run: as §1

ibrutinib = compound: C=CC(=O)N1CCC[C@@H](n2nc(-c3ccc(Oc4ccccc4)cc3)c3c(N)ncnc32)C1 [ibrutinib]
How it was run: as §1

[11] = compound: CC(C)(O)CC(=O)NCCn1ccc2ncnc(Nc3ccc(Oc4cccc(C(F)(F)F)c4)c(Cl)c3)c21
How it was run: as §1

Nexturastat A = compound: CCCCN(Cc1ccc(C(=O)NO)cc1)C(=O)Nc1ccccc1 [Nexturastat A]
How it was run: as §1

barasertib = compound: CCN(CCCOc1ccc2c(Nc3cc(CC(=O)Nc4cccc(F)c4)[nH]n3)ncnc2c1)CCOP(=O)(O)O [barasertib]
How it was run: as §1

[12] = compound: CC(=O)c1cnc2ccc(-c3cc(Cl)c(O)c(Cl)c3)nc2c1N[C@H]1CC[C@H](CN(C)C)CC1
How it was run: as §1

Measured: log2 fold change

BNIP3L (UniProt O60238)
inactive: IRAK-1-4 Inhibitor I -0.056 | ralimetinib -0.148 | [1] 0.081 | [2] 0.35 | pinometostat 0.066 | [3] 0.072 | [4] -0.279 | [5] 0.177 | [6] 0.04 | vemurafenib -0.013 | [7] -0.053 | givinostat 0.06

BAZ1B (UniProt Q9UIG0)
inactive: IRAK-1-4 Inhibitor I -0.126 | pinometostat 0.041 | [3] 0.074 | [8] -0.08 | [6] -0.025 | vemurafenib -0.115 | [7] 0.058

BRCA1 isoform 7 (UniProt P38398)
inactive: IRAK-1-4 Inhibitor I 0.02 | ralimetinib -0.029 | [1] 0.127 | [2] 0.164 | pinometostat 0.015 | [8] -0.32 | [5] -0.041 | [9] -0.191 | [6] -0.163 | vemurafenib 0.27 | [10] -0.194 | [7] 0.064 | givinostat 0.379

BCR (UniProt P11274)
inactive: IRAK-1-4 Inhibitor I -0.175 | ibrutinib 0.101 | ralimetinib 0.123 | [11] -0.047 | [1] -0.505 | [2] 0.198 | pinometostat 0.362 | [4] 0.067 | [8] 0.029 | [5] -0.129 | [9] 0.011 | [6] -0.136 | Nexturastat A 0.236 | [10] 0.027 | [7] 0.303 | givinostat 0.151 | barasertib -0.031

BORCS7 (UniProt Q96B45)
inactive: IRAK-1-4 Inhibitor I -0.008 | ibrutinib -0.014 | [12] -0.165 | [1] 0.093 | pinometostat -0.067 | [3] 0.089 | [4] -0.007 | [9] -0.002 | [6] 0.022 | vemurafenib -0.14 | [10] -0.003 | [7] 0.005 | givinostat -0.014 | barasertib -0.139

ATXN7L3 isoform 2 (UniProt Q14CW9)
inactive: IRAK-1-4 Inhibitor I 0.114 | ibrutinib 0.147 | [12] 0.027 | ralimetinib 0.036 | [1] 0.066 | [2] -0.053 | pinometostat 0.093 | [8] 0.013 | [5] -0.017 | [6] -0.09 | [7] 0.137 | givinostat -0.046 | barasertib -0.042

BRD2 isoform 2 (UniProt P25440)
inactive: IRAK-1-4 Inhibitor I 0.091 | ibrutinib -0.164 | [12] -0.63 | [1] 0.042 | pinometostat 0.038 | [4] -0.117 | [8] 0.348 | [9] 0.039 | [6] 0.076 | vemurafenib -0.033 | [10] 0.014 | givinostat -0.596 | barasertib -0.053

BCL9 (UniProt O00512)
inactive: IRAK-1-4 Inhibitor I 0.001 | [12] -0.105 | ralimetinib -0.197 | [11] 0.047 | [1] 0.093 | [2] 0.194 | pinometostat 0.101 | [4] 0.041 | [8] 0.229 | [5] -0.041 | [9] 0.005 | [6] 0.065 | Nexturastat A 0.023 | vemurafenib -0.224 | [10] 0.005 | givinostat -0.064

BCL2L12 (UniProt Q9HB09)
inactive: ibrutinib 0.003 | [12] -0.28 | ralimetinib -0.054 | [11] -0.037 | [1] -0.22 | [2] 0.176 | [3] 0.045 | [5] -0.115 | [9] 0.1 | Nexturastat A -0.031 | vemurafenib 0.031 | [10] 0.07 | [7] 0.005 | givinostat 0.051 | barasertib 0.052

BRAF (UniProt P15056)
inactive: IRAK-1-4 Inhibitor I -0.025 | ibrutinib 0.002 | ralimetinib 0.019 | [1] -0.044 | [2] -0.031 | pinometostat 0.047 | [4] 0.056 | [8] 0.15 | [9] 0.02 | [6] -0.01 | Nexturastat A -0.053 | vemurafenib 0.148 | [10] 0.144 | [7] -0.049 | givinostat -0.031 | barasertib 0.022

ATXN3 isoform 1 (UniProt P54252)
inactive: IRAK-1-4 Inhibitor I -0.031 | ibrutinib 0.028 | [12] 0.065 | ralimetinib 0.018 | [1] -0.314 | [2] 0.234 | pinometostat 0.021 | [4] 0.016 | [5] -0.08 | [9] 0.012 | [6] -0.043 | vemurafenib 0.005 | [10] 0.04 | [7] -0.016 | givinostat 0.02 | barasertib 0.179

BCAS3 isoform 8 (UniProt Q9H6U6)
inactive: IRAK-1-4 Inhibitor I 0.041 | [12] -0.185 | [1] -0.062 | pinometostat 0.014 | [4] -0.035 | [9] 0.021 | [6] 0.011 | [10] 0.028 | givinostat 0.114
